Laboratory results taken from the supplement of paper PMC12024529.
This is one part of the list. Plates or batches differ in their baseline, so values are only roughly comparable.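 The cells are HEK293 lines stably expressing B-domain-deleted factor VIII fused to Gaussia luciferase, either wild type or a misfolding-prone missense mutant. Each score is mean luminescence from triplicate wells minus the DMSO mean, divided by the DMSO standard deviation; a score of 2 or more counts as a hit, and low scores may reflect lower secretion or poorer cell viability.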

Legend:
[1] = test system: HEK293 WT BDD-FVIII-Gluc; assay: secreted FVIII-Gluc luciferase Z-score vs DMSO control; higher = more FVIII-Gluc secretion; conditions: 5 µM; 24 h
[2] = test system: HEK293 p.N1941S BDD-FVIII-Gluc; assay: as above; conditions: 5 µM; 24 h

CC(O)(CS(=O)(=O)c1ccc(F)cc1)C(=O)Nc1ccc(C#N)c(C(F)(F)F)c1 (stereo unspecified) [Bicalutamide (Casodex)]
secreted FVIII-Gluc luciferase Z-score [1]: inactive: 0.181
secreted FVIII-Gluc luciferase Z-score [2]: inactive: 0.449

CN(C)[C@@H]1C(=O)C(C(N)=O)=C(O)[C@@]2(O)C(=O)C3=C(O)c4c(O)cccc4[C@@](C)(O)[C@H]3[C@H](O)[C@@H]12 [Oxytetracycline dihydrate]
secreted FVIII-Gluc luciferase Z-score [1]: inactive: -0.451
secreted FVIII-Gluc luciferase Z-score [2]: inactive: -0.369

CC(=O)O[C@H]1C[C@@H]2CC[C@@H]3[C@H](CC[C@@]4(C)[C@H]3C[C@H]([N+]3(C)CCCCC3)[C@@H]4OC(C)=O)[C@@]2(C)C[C@@H]1[N+]1(C)CCCCC1 [Pancuronium (Pavulon)]
secreted FVIII-Gluc luciferase Z-score [1]: inactive: -0.657
secreted FVIII-Gluc luciferase Z-score [2]: inactive: -1.43

CC(NC(C)(C)C)C(=O)c1cccc(Cl)c1 (stereo unspecified) [Amfebutamone (Bupropion)]
secreted FVIII-Gluc luciferase Z-score [1]: inactive: -0.389
secreted FVIII-Gluc luciferase Z-score [2]: inactive: 0.000319

O=S(=O)(F)Cc1ccccc1 [PMSF (Phenylmethylsulfonyl Fluoride)]
secreted FVIII-Gluc luciferase Z-score [1]: inactive: -1.74
secreted FVIII-Gluc luciferase Z-score [2]: inactive: -0.227

CCC1(c2ccc(N)cc2)CCC(=O)NC1=O (stereo unspecified) [Aminoglutethimide (Cytadren)]
secreted FVIII-Gluc luciferase Z-score [1]: inactive: 1.77
secreted FVIII-Gluc luciferase Z-score [2]: inactive: -1.51

O=C(O)c1nn(Cc2ccc(Cl)cc2Cl)c2ccccc12 [Lonidamine]
secreted FVIII-Gluc luciferase Z-score [1]: inactive: -2.9
secreted FVIII-Gluc luciferase Z-score [2]: inactive: -0.598

CN1c2ccccc2C(NCCCCCCC(=O)O)c2ccc(Cl)cc2S1(=O)=O (stereo unspecified) [Tianeptine sodium]
secreted FVIII-Gluc luciferase Z-score [1]: inactive: -3.89
secreted FVIII-Gluc luciferase Z-score [2]: inactive: -0.0658
